Test results from PMC9915899.
No constants are given. Whether binding was seen depends on the method and setting. In cells and extracts the contact can be indirect. Some binding calls cover weakened binding; strength is not graded here.

Protein sequences, listed by entry. Tags and fused reporters are not part of them.
UniProt Q05397: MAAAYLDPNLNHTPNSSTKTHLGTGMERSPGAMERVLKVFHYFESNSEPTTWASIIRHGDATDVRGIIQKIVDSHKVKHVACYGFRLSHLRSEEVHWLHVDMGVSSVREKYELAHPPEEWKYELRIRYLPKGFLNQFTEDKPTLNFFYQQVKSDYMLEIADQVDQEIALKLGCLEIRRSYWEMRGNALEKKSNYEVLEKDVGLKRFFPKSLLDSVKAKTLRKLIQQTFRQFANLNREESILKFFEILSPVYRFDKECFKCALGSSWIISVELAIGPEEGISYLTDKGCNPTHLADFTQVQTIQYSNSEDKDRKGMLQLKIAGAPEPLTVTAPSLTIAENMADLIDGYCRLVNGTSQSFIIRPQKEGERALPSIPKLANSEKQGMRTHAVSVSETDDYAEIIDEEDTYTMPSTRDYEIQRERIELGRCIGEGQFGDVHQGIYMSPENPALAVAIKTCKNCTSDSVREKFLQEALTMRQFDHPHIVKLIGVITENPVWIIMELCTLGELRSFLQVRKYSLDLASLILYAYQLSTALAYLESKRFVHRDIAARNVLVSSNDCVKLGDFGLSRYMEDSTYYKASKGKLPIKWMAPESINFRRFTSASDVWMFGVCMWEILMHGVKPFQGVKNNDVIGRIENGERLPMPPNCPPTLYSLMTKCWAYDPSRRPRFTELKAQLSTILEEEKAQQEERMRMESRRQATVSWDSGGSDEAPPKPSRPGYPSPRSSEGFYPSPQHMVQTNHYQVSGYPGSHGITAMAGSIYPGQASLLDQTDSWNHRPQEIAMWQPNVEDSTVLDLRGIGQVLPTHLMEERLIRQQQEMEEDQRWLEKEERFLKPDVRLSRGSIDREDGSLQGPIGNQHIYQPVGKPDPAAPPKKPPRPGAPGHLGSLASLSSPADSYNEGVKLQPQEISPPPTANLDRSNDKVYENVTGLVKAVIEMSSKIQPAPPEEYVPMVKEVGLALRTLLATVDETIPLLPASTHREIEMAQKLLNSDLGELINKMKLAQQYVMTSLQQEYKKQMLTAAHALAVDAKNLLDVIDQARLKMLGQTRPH
UniProt P34152: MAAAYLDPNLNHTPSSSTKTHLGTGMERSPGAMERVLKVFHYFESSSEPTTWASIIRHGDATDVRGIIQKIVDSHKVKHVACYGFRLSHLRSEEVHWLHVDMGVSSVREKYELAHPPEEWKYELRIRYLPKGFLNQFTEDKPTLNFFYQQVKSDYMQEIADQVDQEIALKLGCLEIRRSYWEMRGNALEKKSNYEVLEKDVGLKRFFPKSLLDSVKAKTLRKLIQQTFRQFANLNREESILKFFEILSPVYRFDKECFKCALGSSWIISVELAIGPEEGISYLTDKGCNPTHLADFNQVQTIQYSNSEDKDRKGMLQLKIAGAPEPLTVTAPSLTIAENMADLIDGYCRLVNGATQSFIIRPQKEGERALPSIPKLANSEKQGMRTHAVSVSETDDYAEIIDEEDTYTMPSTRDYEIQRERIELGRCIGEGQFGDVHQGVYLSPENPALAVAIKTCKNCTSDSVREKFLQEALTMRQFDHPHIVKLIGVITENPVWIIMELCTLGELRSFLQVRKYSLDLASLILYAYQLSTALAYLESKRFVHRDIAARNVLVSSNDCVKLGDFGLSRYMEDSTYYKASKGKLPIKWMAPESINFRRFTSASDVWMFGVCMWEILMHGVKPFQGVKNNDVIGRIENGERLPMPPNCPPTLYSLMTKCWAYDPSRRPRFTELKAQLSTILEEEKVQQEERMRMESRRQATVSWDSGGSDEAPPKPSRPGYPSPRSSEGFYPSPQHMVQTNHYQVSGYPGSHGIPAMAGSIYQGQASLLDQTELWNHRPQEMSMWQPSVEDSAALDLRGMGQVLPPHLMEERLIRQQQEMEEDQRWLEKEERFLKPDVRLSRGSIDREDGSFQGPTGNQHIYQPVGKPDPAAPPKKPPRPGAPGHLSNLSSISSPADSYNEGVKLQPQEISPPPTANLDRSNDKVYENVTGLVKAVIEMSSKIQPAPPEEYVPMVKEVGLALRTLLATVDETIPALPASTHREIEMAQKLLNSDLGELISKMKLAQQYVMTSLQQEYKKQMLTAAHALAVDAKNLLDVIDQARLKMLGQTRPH

How the values were obtained:
[1] = molecular target: Epidermal growth factor receptor (EGFR), human (human (endogenous in HT-29)) (UniProt P00533); assay: co-IP; HT-29 cell lysates; cells treated with DMSO, PF-562271 (5 μM) or erlotinib (10 μM) for one hour before harvest; same immunoprecipitation protocol as for tissue lysates; anti-HA or anti-Flag beads as controls
[2] = molecular target: Epidermal growth factor receptor (Egfr), mouse (mouse (endogenous in cecal mucosa)) (UniProt Q01279); assay: co-IP; cecal mucosa lysates of 6-week-old mice (control, BC, KC; BC also treated with the EGFR inhibitor erlotinib), pre-cleared with Protein G-sepharose, incubated with anti-EGFR antibody conjugated to agarose at 4°C for 4 hr; washed with 20 mM Tris-HCl pH 7.5, 150 mM NaCl, 1 mM EDTA, 1% NP40, 10% glycerol; immunoblotting

binding [1] | binding [2] | Substance
binds |  | Focal adhesion kinase (FAK), human (from UniProt Q05397 1-1052)
 | binds | Focal adhesion kinase (Fak), mouse (from UniProt P34152 1-1052)
